From US7378121B2, “Use of ferulic acid amides as flavor compounds” (Symrise GmbH & Co. KG, priority 2001, dated 2008)
At least one structure is not confirmed: it was looked up by name or label, or the drawing left a doubt.

Key:
[1] = Tasting of the pungent compounds in 11% strength by weight sugar solution (Example 1); format: in vivo, human; settings: approx. 5 ml swallowed, 8 testers
Description: The substance, under test, was dissolved in ethanol and the ethanolic solution was then diluted with an 11% strength by weight sugar solution (final concentration: c). For tasting, in each case approximately 5 ml of the sugar solution was swallowed. If the threshold value of the substance was known, a value just above the threshold value is chosen for the tasting. A group of 8 testers tasted the solutions.

[2] = cited from earlier work

In the case of `O=C(/C=C/C=C/c1ccc2c(c1)OCO2)N1CCCCC1` [piperine, 1-piperoylpiperidine, reference compound], the Sensory profile ([1]; c=20 ppm in 11% sugar solution) is given as “weak development of heat after a long delay (in the case of 8 participants), sharp, burning, persistent, peppercorn, in the entire oral region (in the case of 8 participants)”, the Sensory profile ([1]; c=500 ppb in 11% sugar solution) is given as “weak development of heat after a long delay (in the case of 6 participants), neutral pungency occurring after a delay (in the case of 6 participants)” and the “Relative pungency compared with capsaicin” value ([2]; compared with capsaicin) is given as “approximately 1%”. For the same compound, the “Pungency as described in the literature” value ([2]; in vivo) was “very hot impression”.
